In paper PMC7819943, “Rice protein-binding microarrays: a tool to detect cis-acting elements near promoter regions in rice”:
The other results are listed elsewhere or left out.

biological target: T1, OsSMF1 (Oryza sativa, UniProt Q6ZLB0 1-436); assay: protein-binding microarray (RPBM); PBS, 2% BSA, 51.3 ng/ul salmon testes DNA, 50 uM zinc acetate, 200 nM TF, 25 C, 1 h; high values mean tight binding; conditions: protein: recombinant; tags: N-terminal polyhistidine and DsRed monomer fusion (pET32a); chain copies: 2; label: CyDye5-dUTP incorporated in the synthesized complementary strand; 3' TTTTT single-stranded linker to array surface; dsDNA, one strand shown
T1 sequence: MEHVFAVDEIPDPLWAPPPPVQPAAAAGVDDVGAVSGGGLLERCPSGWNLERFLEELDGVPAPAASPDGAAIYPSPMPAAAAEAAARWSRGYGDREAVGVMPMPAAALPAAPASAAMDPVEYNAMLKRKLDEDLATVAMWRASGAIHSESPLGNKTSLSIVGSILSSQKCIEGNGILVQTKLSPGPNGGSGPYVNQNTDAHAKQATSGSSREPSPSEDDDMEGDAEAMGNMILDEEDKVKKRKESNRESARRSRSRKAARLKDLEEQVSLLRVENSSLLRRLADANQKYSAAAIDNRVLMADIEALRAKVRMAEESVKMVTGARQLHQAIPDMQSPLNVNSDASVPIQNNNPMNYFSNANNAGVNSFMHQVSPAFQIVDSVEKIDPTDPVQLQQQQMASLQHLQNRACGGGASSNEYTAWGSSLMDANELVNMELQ
How it was run: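 A custom Agilent array was converted to double-stranded form by primer extension with Cy5-dUTP and blocked with 2% BSA. Protein at 200 nM in PBS with 2% BSA, salmon testes DNA and 50 µM zinc acetate was applied for 1 h at 25 °C, followed by washing. The proteins were polyhistidine–DsRed N-terminal fusions of transcription factors, expressed in E. coli BL21-CodonPlus and Ni–NTA-purified. The binding signal is per-feature fluorescence intensity (arbitrary units) from an Axon 4000B scanner.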

Which binding signal does the source give for “AATGCACAGCTAGTACTACTCGCGAGTCACCATCCATCTCCGGAGTCACCTAGTGCAG” here?
Its binding signal is 3870 fluorescence intensity (a.u.).

“TCTCTCTCTATACTCCACTCATGTGCTGTACTACACTGACCGGAGTCACCTAGTGCAG” was tested. Which binding signal did it give?
The binding signal was 3660 fluorescence intensity (a.u.).

For “CCATTTGTTTCACTTTACACCACACCTCATCTTCTCCAAGCGGAGTCACCTAGTGCAG”, which binding signal is on record?
The binding signal was 3880 fluorescence intensity (a.u.).

Which binding signal does the source give for “CCTCCTCCCTCTCGTCCTGCGCCATCATGACGCCGCCGCGCGGAGTCACCTAGTGCAG” here?
The binding signal was 4390 fluorescence intensity (a.u.).

With “GCCATATTTTCTGTTTTGTCATCAATATATGATTAGAAAACGGAGTCACCTAGTGCAG” as the sequence, how does the binding signal read?
Its binding signal is 3320 fluorescence intensity (a.u.).

“GGATAAGCACCGACGATTTGGTGGTAGATCTATATGGGTACGGAGTCACCTAGTGCAG” was tested. Which binding signal did it give?
Its binding signal is 48000 fluorescence intensity (a.u.).

“GAGAAGCTGACATGTGGGTCTCACTGCTGAGTCAGCCGGTCGGAGTCACCTAGTGCAG” was tested. Which binding signal did it give?
Its binding signal is 21700 fluorescence intensity (a.u.).

How did the binding signal turn out when “TTGGGAACCCATTGCTGCTGCAAATGGTGGATGAGTTGTCCGGAGTCACCTAGTGCAG” was run?
Its binding signal is 3470 fluorescence intensity (a.u.).

How did the binding signal turn out when “CGCACCCGCCGCCACCTCACCGCCCGACGACGACGACGAGCGGAGTCACCTAGTGCAG” was run?
Its binding signal is 6010 fluorescence intensity (a.u.).

How did the binding signal turn out when “GAAGAGCTACATGTGCCCCAGTTGCAAGTCTACCCTAACACGGAGTCACCTAGTGCAG” was run?
The binding signal was 3420 fluorescence intensity (a.u.).

“AGACGTGAGATGTAAGCAAGGAGCACACACACACACACACCGGAGTCACCTAGTGCAG” was tested. Which binding signal did it give?
The binding signal was 3270 fluorescence intensity (a.u.).

“AGGTGAATTTTCCAACATGACCAACATTTTGAACTTGGATCGGAGTCACCTAGTGCAG” was tested. Which binding signal did it give?
The binding signal was 3350 fluorescence intensity (a.u.).

How did the binding signal turn out when “CAACATGCACGTACTACGTGTGCTTGCATTGCATGCATGCCGGAGTCACCTAGTGCAG” was run?
The binding signal was 4450 fluorescence intensity (a.u.).

For “GCACTCGCCTCCTTCCTCCACCTCCACCACGCCCCACTCCCGGAGTCACCTAGTGCAG”, which binding signal is on record?
The binding signal was 11500 fluorescence intensity (a.u.).

For “ATCGATCAGGCAATGAACCCATTATTGTTTGCCTCCAAAACGGAGTCACCTAGTGCAG”, which binding signal is on record?
The binding signal was 34100 fluorescence intensity (a.u.).

With “CTGGTGACCTGTCGATCGAGTCCGCTGTTCTTGGTCAATCCGGAGTCACCTAGTGCAG” as the sequence, how does the binding signal read?
The binding signal was 3290 fluorescence intensity (a.u.).

For “AACTGTATGTTATCTCTGATGATCTTACACATGGCACAGGCGGAGTCACCTAGTGCAG”, which binding signal is on record?
Its binding signal is 3400 fluorescence intensity (a.u.).

Which binding signal does the source give for “CGTGCAAGGGCAACTTGACGTGCCTTGCATATCATTACAGCGGAGTCACCTAGTGCAG” here?
The binding signal was 4100 fluorescence intensity (a.u.).

How did the binding signal turn out when “AAACATCCATAGAACGTGTAACATATGGTATCACGTGCCACGGAGTCACCTAGTGCAG” was run?
Its binding signal is 4080 fluorescence intensity (a.u.).

For “GTCCCGCGCATTGGCGACGCGCGACCGGCACGGTCCCGCACGGAGTCACCTAGTGCAG”, which binding signal is on record?
The binding signal was 13500 fluorescence intensity (a.u.).

How did the binding signal turn out when “TCACGTGTGCTTGAAATGGGCCTGAGTTGGGTTGGATATGCGGAGTCACCTAGTGCAG” was run?
Its binding signal is 3660 fluorescence intensity (a.u.).

How did the binding signal turn out when “TGCCCAATTTGATGTGAACCCTAGCTTACTTGGTCACATGCGGAGTCACCTAGTGCAG” was run?
The binding signal was 3250 fluorescence intensity (a.u.).

Which binding signal does the source give for “AGAGAAGTTAGGATTGAGTCATCTCTTTACTTTCCTGACTCGGAGTCACCTAGTGCAG” here?
Its binding signal is 4710 fluorescence intensity (a.u.).

With “GATCATCGTGTGGGTGCGGTGACGGAACGGTGACGTAAATCGGAGTCACCTAGTGCAG” as the sequence, how does the binding signal read?
The binding signal was 3300 fluorescence intensity (a.u.).

Which binding signal does the source give for “CACTCACCCCTATGAATGCGTGCACGCAAACCCTACCCCTCGGAGTCACCTAGTGCAG” here?
The binding signal was 3650 fluorescence intensity (a.u.).

“TTCACGCCCTGTAACATCGTGTGCATCCATCCCTCCACCGCGGAGTCACCTAGTGCAG” was tested. Which binding signal did it give?
The binding signal was 4190 fluorescence intensity (a.u.).

With “CCAGACCCTTCCAGAACTCCCATCCGATCTCAATCCAACGCGGAGTCACCTAGTGCAG” as the sequence, how does the binding signal read?
Its binding signal is 3240 fluorescence intensity (a.u.).

For “TGGCGCCGTTCCCCTGCCACCGTGGTAGCTGATGTGGCATCGGAGTCACCTAGTGCAG”, which binding signal is on record?
Its binding signal is 12400 fluorescence intensity (a.u.).

“TTCCCCTTACTCTATCTCTCCCACTCCTGACCAATGTGGCCGGAGTCACCTAGTGCAG” was tested. Which binding signal did it give?
Its binding signal is 3570 fluorescence intensity (a.u.).

With “AACCCGAAAAGCTGCCGTCGCCTCGTCTCGTCGCCCCGAACGGAGTCACCTAGTGCAG” as the sequence, how does the binding signal read?
The binding signal was 3340 fluorescence intensity (a.u.).

For “AGAGATCACCCTTGTCACCGTCAACATGCCTGTGTTCTGCCGGAGTCACCTAGTGCAG”, which binding signal is on record?
The binding signal was 5590 fluorescence intensity (a.u.).

“GCTCCGCGTCGATCGAGGAGTAGTACACCGTGGTCTTGATCGGAGTCACCTAGTGCAG” was tested. Which binding signal did it give?
Its binding signal is 3870 fluorescence intensity (a.u.).

Which binding signal does the source give for “GATATCACAACCTGACCCACATTAGTCACACGCACTCACACGGAGTCACCTAGTGCAG” here?
The binding signal was 3790 fluorescence intensity (a.u.).

With “CTTGGTCGTTTTACTTGCAAGTGACTCAACGAATGCATCGCGGAGTCACCTAGTGCAG” as the sequence, how does the binding signal read?
Its binding signal is 5050 fluorescence intensity (a.u.).

How did the binding signal turn out when “GACGAGGCCAGGGACGACATCGAGGACCTCGGCTGGCGCGCGGAGTCACCTAGTGCAG” was run?
The binding signal was 4310 fluorescence intensity (a.u.).

Which binding signal does the source give for “TGCGACGTAAGCGCCACGTCAATCCCACATAAGACGAAGACGGAGTCACCTAGTGCAG” here?
The binding signal was 8000 fluorescence intensity (a.u.).

For “CATTTTGATTTGTTGCCACGTTCAACCCGATAACATGTATCGGAGTCACCTAGTGCAG”, which binding signal is on record?
Its binding signal is 3180 fluorescence intensity (a.u.).

Which binding signal does the source give for “CTGCAATAATTGGGCATATCTTGGCGCACGCATCAGCAATCGGAGTCACCTAGTGCAG” here?
The binding signal was 3980 fluorescence intensity (a.u.).

How did the binding signal turn out when “GACACCAATACGCCCATACGGATACGTACACGTACGGCCTCGGAGTCACCTAGTGCAG” was run?
The binding signal was 5070 fluorescence intensity (a.u.).

“CTTGACTAGGGACTCATACGTAATCATGGTTACAAGGATTCGGAGTCACCTAGTGCAG” was tested. Which binding signal did it give?
The binding signal was 3160 fluorescence intensity (a.u.).

For “TACTACGGTGGGTGGCAGAACTGTGTAATTTGGACTGGGTCGGAGTCACCTAGTGCAG”, which binding signal is on record?
Its binding signal is 3170 fluorescence intensity (a.u.).

“ACATGGAGCATGTCAGCATGTGAATCAGCAAACATATATGCGGAGTCACCTAGTGCAG” was tested. Which binding signal did it give?
The binding signal was 8960 fluorescence intensity (a.u.).

With “GTGGGCGGCGATGGGCGGTCAGCAGTGCCACCGTCATCCCCGGAGTCACCTAGTGCAG” as the sequence, how does the binding signal read?
The binding signal was 5050 fluorescence intensity (a.u.).

How did the binding signal turn out when “TCATCCCTCGGCCGGAAAACCGGGTATGACGGGTCCTCGACGGAGTCACCTAGTGCAG” was run?
The binding signal was 4290 fluorescence intensity (a.u.).

How did the binding signal turn out when “TTAGATAATGTTTACTGTAGCATCACATAGGCTAATCATGCGGAGTCACCTAGTGCAG” was run?
The binding signal was 3440 fluorescence intensity (a.u.).

Which binding signal does the source give for “AGGTCAGAAGTGTACTCGGTTGGTGCAATATGCCGTTCCTCGGAGTCACCTAGTGCAG” here?
Its binding signal is 10500 fluorescence intensity (a.u.).

For “AATACTTGGCTTGTTGTCATTATGTATGTACGTACATTGCCGGAGTCACCTAGTGCAG”, which binding signal is on record?
The binding signal was 3550 fluorescence intensity (a.u.).

“TCAGAGTCAACAGCTGACCAACAATGCGGGACCCTTGCTCCGGAGTCACCTAGTGCAG” was tested. Which binding signal did it give?
The binding signal was 3240 fluorescence intensity (a.u.).

For “CCGCTGCCGCGGCTTCTAGGTTTTCCATTCCCCATCCGCTCGGAGTCACCTAGTGCAG”, which binding signal is on record?
Its binding signal is 25300 fluorescence intensity (a.u.).

For “AGCTTACTGGTCGCTGGATTGTTTGATTTGCAAGAGCAAGCGGAGTCACCTAGTGCAG”, which binding signal is on record?
The binding signal was 14000 fluorescence intensity (a.u.).

Which binding signal does the source give for “AGGTTCGCAGTTCCACGCATCCCACCATCACCACACCACGCGGAGTCACCTAGTGCAG” here?
Its binding signal is 5160 fluorescence intensity (a.u.).

For “CCAATTTCCGACTTCATGAGATTTATGTCTTTGTGGTCAGCGGAGTCACCTAGTGCAG”, which binding signal is on record?
The binding signal was 3210 fluorescence intensity (a.u.).

“AGCGGCATCAGCGCACGCGTCAGTCGTAGCCTCACTGCGACGGAGTCACCTAGTGCAG” was tested. Which binding signal did it give?
Its binding signal is 3450 fluorescence intensity (a.u.).

Which binding signal does the source give for “CACGGCGATCACGACCAAGGCCGACGTGTTCAGCTACGGGCGGAGTCACCTAGTGCAG” here?
Its binding signal is 5820 fluorescence intensity (a.u.).
